Reference: ChEMBL document CHEMBL4376840, “Application of Fluorine- and Nitrogen-Walk Approaches: Defining the Structural and Functional Diversity of 2-Phenylindole Class of Cannabinoid 1 Receptor Positive Allosteric Modulators” (J Med Chem, 2020)

Sequences of proteins named here, by UniProt entry; tags and fusion partners are left off.
UniProt P20272, whole entry: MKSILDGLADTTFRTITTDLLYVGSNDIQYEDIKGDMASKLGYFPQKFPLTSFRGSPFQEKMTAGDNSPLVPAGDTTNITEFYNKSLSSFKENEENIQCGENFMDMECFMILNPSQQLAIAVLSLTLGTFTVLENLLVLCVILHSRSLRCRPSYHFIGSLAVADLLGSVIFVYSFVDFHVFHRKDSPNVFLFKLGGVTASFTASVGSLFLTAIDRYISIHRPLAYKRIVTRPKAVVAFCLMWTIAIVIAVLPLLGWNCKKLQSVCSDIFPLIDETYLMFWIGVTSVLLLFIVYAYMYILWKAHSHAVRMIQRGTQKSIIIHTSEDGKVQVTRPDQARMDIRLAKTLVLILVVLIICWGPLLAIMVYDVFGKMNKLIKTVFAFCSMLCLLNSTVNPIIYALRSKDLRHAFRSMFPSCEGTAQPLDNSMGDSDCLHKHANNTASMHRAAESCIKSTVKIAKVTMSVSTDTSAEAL

Assays:
Type in all cases: functional, cell-based
[1] = biological target: Cannabinoid receptor 1 (Rattus norvegicus) (UniProt P20272); assay: (§1) Positive allosteric modulatory activity at N-terminal GFP-tagged rat CB1R receptor expressed in HEK293 cells assessed as increase in CP55940-induced inhibition of forskolin-induced cAMP accumulation by measuring Emax for cAMP accumulation at low concentrations of CP55940 at 0.03 microM after 30 mins by TR-FRET assay relative to forskolin
[2] = biological target: Cannabinoid receptor 1 (Rattus norvegicus) (UniProt P20272); assay: as §1, with “concentration” for “concentrations”, “0.1” for “0.03”
[3] = biological target: Cannabinoid receptor 1 (Rattus norvegicus) (UniProt P20272); assay: as §1, with “concentration” for “concentrations”, “0.001” for “0.03”
[4] = biological target: Cannabinoid receptor 1 (Rattus norvegicus) (UniProt P20272); assay: as §1, with “concentration” for “concentrations”, “0.3” for “0.03”
[5] = biological target: Cannabinoid receptor 1 (Rattus norvegicus) (UniProt P20272); assay: Allosteric agonist activity at N-terminal GFP-tagged rat CB1R expressed in HEK293 cells assessed as inhibition of forskolin-induced cAMP production by measuring cAMP accumulation at minimal level at higher concentrations after 30 min by TR-FRET assay relative to forskolin
Method in brief: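 HEK293 cells stably expressing N-terminal GFP-tagged rat CB1R were trypsin-EDTA dissociated and resuspended in HBSS with 0.1% BSA and 0.5mM IBMX at 500 cells/well. Cells got 5μM forskolin plus compound (1 pM – 10 μM) alone for 30 min. 4-parameter fit; Emin is the lower plateau. n ≥ 3, triplicate.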

## O=[N+]([O-])CC(c1ccccc1)c1c(-c2ccccc2)[nH]c2ccccc12 (racemic)
[1]
  Emax: 100%
[2]
  Emax: 82%
[3]
  Emax: 101%
[4]
  Emax: 75%
[5]
  Emin: 39%
